Chains of the proteins cited; added tags and fusions are not shown. Lines headed by an entry give the natural chain unless they say otherwise; changes in a name come on top.
UniProt Q9UQB8: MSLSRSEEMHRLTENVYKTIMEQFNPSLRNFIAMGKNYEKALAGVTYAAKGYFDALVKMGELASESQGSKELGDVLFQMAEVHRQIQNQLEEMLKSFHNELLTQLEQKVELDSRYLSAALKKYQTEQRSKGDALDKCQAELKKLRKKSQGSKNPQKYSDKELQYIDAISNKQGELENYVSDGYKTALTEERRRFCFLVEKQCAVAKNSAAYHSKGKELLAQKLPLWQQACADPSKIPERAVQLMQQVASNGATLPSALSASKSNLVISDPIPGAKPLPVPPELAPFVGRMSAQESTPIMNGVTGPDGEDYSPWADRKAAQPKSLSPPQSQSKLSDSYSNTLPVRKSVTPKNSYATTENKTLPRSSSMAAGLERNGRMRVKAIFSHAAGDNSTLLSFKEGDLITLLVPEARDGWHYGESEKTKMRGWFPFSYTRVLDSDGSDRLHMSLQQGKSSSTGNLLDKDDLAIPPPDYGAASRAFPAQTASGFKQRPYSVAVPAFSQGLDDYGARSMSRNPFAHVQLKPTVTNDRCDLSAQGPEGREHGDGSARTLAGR
UniProt Q03173: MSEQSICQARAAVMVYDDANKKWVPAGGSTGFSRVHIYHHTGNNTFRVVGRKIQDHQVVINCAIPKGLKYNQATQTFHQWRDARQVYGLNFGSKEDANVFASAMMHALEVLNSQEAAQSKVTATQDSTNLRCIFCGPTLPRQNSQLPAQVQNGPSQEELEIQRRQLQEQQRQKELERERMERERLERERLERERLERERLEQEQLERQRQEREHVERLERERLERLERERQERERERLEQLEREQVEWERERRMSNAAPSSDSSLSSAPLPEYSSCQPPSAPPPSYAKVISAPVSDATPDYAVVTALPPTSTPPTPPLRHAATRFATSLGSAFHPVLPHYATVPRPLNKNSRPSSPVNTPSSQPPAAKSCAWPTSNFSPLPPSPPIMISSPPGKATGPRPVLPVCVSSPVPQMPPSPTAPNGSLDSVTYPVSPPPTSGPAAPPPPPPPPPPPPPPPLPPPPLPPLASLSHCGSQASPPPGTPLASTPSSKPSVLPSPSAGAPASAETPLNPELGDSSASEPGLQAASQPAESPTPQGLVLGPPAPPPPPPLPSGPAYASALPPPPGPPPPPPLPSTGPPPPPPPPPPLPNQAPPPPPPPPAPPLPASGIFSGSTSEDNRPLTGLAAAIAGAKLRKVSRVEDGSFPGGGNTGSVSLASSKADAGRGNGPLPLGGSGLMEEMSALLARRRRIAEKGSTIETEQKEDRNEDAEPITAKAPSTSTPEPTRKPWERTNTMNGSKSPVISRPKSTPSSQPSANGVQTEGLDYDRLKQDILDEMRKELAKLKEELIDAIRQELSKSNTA
UniProt A0A571BF02: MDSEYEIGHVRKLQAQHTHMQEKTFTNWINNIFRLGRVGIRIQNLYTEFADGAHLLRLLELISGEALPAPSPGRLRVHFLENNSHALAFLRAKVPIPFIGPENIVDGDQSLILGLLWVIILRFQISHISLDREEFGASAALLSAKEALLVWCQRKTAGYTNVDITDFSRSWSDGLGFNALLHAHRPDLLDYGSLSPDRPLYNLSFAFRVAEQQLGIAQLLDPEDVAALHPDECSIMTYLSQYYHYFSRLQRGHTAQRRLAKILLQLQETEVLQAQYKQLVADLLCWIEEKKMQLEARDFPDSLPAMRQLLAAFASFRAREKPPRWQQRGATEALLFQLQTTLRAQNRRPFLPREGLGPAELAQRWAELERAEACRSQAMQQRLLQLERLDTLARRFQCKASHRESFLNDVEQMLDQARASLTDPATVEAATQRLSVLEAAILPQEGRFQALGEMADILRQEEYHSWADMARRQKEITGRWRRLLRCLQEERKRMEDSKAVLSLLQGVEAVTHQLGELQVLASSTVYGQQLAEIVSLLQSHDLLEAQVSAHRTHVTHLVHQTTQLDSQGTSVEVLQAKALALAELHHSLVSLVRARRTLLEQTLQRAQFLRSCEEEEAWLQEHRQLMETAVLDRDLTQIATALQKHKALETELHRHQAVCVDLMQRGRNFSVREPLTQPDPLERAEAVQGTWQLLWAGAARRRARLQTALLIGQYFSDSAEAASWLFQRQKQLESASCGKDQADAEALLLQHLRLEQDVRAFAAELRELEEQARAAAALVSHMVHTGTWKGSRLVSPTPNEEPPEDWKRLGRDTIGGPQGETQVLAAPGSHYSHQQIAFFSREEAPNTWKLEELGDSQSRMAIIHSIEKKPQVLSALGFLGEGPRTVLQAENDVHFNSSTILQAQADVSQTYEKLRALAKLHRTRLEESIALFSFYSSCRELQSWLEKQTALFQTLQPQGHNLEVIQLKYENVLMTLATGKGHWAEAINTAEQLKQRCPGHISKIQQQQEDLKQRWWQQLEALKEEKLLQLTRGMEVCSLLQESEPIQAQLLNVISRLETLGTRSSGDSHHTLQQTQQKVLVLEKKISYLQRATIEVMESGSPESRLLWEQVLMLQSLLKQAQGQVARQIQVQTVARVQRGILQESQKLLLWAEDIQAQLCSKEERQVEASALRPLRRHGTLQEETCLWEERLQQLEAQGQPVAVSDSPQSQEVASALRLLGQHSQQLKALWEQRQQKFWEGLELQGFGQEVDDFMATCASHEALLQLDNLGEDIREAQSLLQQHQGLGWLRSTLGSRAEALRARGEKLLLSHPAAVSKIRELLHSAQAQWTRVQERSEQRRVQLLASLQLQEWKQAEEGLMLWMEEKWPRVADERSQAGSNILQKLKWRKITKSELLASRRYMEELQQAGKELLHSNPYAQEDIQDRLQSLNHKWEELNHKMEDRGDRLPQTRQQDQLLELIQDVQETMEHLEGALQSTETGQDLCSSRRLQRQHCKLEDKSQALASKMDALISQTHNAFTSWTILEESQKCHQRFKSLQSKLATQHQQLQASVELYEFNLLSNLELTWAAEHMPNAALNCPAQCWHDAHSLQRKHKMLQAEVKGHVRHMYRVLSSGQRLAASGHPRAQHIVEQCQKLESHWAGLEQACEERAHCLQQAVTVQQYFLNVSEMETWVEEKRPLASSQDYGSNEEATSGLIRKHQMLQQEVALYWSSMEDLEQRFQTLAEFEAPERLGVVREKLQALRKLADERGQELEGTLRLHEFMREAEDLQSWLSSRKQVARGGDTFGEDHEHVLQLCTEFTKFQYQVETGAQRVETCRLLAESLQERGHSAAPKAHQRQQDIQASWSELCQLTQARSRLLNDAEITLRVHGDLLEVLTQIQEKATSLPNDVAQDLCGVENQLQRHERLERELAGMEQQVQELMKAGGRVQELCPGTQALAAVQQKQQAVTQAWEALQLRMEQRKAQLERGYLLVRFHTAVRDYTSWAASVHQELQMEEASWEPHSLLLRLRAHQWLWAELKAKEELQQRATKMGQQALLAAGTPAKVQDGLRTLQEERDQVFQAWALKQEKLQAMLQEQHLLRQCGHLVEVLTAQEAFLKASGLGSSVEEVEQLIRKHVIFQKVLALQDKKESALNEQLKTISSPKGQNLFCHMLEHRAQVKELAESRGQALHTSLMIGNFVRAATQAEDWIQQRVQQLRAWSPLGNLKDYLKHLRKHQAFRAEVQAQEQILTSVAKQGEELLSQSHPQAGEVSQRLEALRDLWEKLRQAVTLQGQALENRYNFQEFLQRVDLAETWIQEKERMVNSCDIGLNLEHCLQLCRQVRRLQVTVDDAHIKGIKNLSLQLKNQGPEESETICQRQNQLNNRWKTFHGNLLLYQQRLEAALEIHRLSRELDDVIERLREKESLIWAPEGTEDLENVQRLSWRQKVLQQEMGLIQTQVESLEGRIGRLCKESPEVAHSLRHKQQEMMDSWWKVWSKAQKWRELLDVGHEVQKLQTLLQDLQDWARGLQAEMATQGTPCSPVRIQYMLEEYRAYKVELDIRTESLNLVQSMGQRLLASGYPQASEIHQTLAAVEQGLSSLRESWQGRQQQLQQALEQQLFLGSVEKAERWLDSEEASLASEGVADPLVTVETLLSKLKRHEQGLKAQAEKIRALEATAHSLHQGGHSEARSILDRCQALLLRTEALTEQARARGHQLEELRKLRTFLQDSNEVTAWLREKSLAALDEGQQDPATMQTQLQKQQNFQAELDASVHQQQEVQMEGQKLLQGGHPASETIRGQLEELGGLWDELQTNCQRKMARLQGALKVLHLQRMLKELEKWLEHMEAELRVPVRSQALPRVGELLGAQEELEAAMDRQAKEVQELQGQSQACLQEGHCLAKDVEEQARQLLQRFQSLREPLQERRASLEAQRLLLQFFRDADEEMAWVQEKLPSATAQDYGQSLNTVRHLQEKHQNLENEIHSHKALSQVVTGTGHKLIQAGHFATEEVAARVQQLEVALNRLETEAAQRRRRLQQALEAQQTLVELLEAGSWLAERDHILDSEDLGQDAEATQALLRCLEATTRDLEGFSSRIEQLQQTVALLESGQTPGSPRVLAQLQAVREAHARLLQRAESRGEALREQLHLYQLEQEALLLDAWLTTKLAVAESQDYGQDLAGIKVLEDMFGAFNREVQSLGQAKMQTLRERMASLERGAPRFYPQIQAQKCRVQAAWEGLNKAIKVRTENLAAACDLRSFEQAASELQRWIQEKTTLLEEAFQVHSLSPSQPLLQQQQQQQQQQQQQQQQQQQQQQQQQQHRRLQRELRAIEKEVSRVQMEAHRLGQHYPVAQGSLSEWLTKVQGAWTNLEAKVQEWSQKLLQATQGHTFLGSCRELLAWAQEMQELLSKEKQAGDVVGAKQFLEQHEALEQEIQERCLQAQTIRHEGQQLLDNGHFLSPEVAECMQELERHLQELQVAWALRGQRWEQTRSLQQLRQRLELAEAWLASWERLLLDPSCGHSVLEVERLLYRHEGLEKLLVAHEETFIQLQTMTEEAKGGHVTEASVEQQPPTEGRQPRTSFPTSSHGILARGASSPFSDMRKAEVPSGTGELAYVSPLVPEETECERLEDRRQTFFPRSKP
UniProt P13020: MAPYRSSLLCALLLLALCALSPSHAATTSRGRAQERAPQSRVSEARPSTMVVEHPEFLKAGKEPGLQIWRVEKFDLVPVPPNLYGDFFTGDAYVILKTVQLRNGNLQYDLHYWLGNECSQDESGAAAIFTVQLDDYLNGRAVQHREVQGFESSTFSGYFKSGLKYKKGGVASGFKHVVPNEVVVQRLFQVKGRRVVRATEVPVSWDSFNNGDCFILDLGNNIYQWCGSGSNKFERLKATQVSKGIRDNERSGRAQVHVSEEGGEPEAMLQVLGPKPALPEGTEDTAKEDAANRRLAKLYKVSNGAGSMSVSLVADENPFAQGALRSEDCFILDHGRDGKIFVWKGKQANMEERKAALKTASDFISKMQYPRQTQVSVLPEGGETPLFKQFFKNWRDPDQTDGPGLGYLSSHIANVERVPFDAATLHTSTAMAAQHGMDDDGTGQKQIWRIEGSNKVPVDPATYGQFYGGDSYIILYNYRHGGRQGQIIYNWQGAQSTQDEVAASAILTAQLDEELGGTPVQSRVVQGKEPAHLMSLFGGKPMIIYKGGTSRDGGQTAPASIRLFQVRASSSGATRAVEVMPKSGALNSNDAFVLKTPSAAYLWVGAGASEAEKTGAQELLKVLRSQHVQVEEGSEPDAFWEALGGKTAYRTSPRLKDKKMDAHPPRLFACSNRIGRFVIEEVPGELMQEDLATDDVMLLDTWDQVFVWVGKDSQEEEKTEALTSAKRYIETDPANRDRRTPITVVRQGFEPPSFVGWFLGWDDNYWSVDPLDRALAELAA
UniProt P62962: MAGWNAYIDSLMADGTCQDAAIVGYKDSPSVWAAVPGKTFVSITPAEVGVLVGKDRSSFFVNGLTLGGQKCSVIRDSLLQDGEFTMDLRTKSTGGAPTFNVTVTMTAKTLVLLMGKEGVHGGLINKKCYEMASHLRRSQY

According to publication doi:10.1101/2022.08.24.504515:

molecular target: IRSp53-EGFP (UniProt Q9UQB8); assay: affinity purification with mass spectrometry

binding, binds:
Arpc1b (from UniProt Q9WV32 1-372)
Enah (from UniProt Q03173 1-802)
Myh3 (from UniProt P13541 1-1940)
Sptbn5 (from UniProt A0A571BF02 1-3624)
gelsolin (from UniProt P13020)
profilin (from UniProt P62962 1-140)

No constants are given. Whether binding was seen depends on the method and setting. In cells and extracts the contact can be indirect. A yes stands for co-enrichment or nearness to the bait. Other partners may have been found.
